PMC5862892, “Near-native, site-specific and purification-free protein labeling for quantitative protein interaction analysis by MicroScale Thermophoresis” (Scientific Reports, 2018)

Test system: RED-tris-NTA/His6-peptide interaction
Assay: Buffer additive screen: His6-peptide titrated against RED-tris-NTA with additives in PBST
Assay type: binding

| Compound | Maximum allowed assay concentration (highest additive concentration that did not alter the Kd of His6-peptide/RED-tris-NTA, PBST) [mM] | Maximum allowed assay concentration (in words) (tested at 100 nM, ions compete for binding with tris-NTA fluorophores) |
| --- | --- | --- |
| Cl.O=C(O)CCP(CCC(=O)O)CCC(=O)O [TCEP, tris(2-carboxyethyl)phosphine hydrochloride] | 0.5 | – |
| [Co+2] [Co(II)] | – | preloaded protein only |
